# In article PMC7819943, “Rice protein-binding microarrays: a tool to detect cis-acting elements near promoter regions in rice”:
# Chains of the proteins cited; added tags and fusions are not shown.
# UniProt Q0JBA9, entry or part of it: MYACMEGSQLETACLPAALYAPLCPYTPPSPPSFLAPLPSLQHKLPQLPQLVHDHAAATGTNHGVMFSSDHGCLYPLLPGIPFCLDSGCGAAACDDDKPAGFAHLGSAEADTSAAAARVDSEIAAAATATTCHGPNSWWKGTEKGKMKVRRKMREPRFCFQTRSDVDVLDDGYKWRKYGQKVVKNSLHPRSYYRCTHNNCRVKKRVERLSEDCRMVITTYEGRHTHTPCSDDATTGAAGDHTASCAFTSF
# This is one part of the list.
# Molecular target: OsWRKY34 (Oryza sativa, UniProt Q0JBA9 1-250)
# Test: protein-binding microarray (RPBM); PBS, 2% BSA, 51.3 ng/ul salmon testes DNA, 50 uM zinc acetate, 200 nM TF, 25 C, 1 h; high values mean tight binding
# Conditions: protein: recombinant; tags: N-terminal polyhistidine and DsRed monomer fusion (pET32a); label: CyDye5-dUTP incorporated in the synthesized complementary strand; 3' TTTTT single-stranded linker to array surface; dsDNA, one strand shown
# Procedure, shortened: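 Transcription factors, each fused N-terminally to a polyhistidine tag and DsRed, were expressed in E. coli BL21-CodonPlus and purified on Ni–NTA. A custom Agilent array was made double-stranded by primer extension with Cy5-dUTP and blocked with 2% BSA. It was incubated with 200 nM protein in PBS, 2% BSA, salmon testes DNA and 50 µM zinc acetate at 25 °C for 1 h, then washed. The binding signal is per-feature fluorescence intensity (arbitrary units) read on an Axon 4000B scanner.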
row,Sequence,binding signal
1,TTTTTTGCTTTTTCATGAATTCTTCAGACATGATGTAAACCGGAGTCACCTAGTGCAG,8500 fluorescence intensity (a.u.)
2,TTGCACTGTGTCGCCGGCGCGTCGCAGATCCTATCATTCCCGGAGTCACCTAGTGCAG,8110 fluorescence intensity (a.u.)
3,CTTCTTCCTACGTTCTATCGCTTCTCCGCCGCCGCCGCCGCGGAGTCACCTAGTGCAG,8440 fluorescence intensity (a.u.)
4,AATGGATATCAGGATATGAAGCTCAAAGTTATCGGTTATTCGGAGTCACCTAGTGCAG,8240 fluorescence intensity (a.u.)
5,GTGTGATCTCCATATTAGCCTTCTTACTACCCAACCCTCACGGAGTCACCTAGTGCAG,8100 fluorescence intensity (a.u.)
6,CTTATTTGTTTACTATGGTAGTTTGTCACTCCTGTCAATTCGGAGTCACCTAGTGCAG,9670 fluorescence intensity (a.u.)
7,CTGCTCCTACCACTCACTAATCCGTAGCTTCACCGGATCCCGGAGTCACCTAGTGCAG,8110 fluorescence intensity (a.u.)
8,GCCGCATCTCTTCTCTCTCTACTCTCCCACCCTCCACCTCCGGAGTCACCTAGTGCAG,8160 fluorescence intensity (a.u.)
9,TCGCTTACACACAAATACACACCTCTCCCTTTCTTCTTCCCGGAGTCACCTAGTGCAG,9260 fluorescence intensity (a.u.)
10,TCTCGTCCTTCTGTGGCCGGGAGGGGCGCGGTTTCTGCCGCGGAGTCACCTAGTGCAG,9030 fluorescence intensity (a.u.)
11,GTCATCCTCTCCATCCCCTCGTCGTCGTCCGCTCGCCTCTCGGAGTCACCTAGTGCAG,8250 fluorescence intensity (a.u.)
12,CTGTATGTGCTCCGTCTGTTTTACTGTTCCGTCACGTGTCCGGAGTCACCTAGTGCAG,9770 fluorescence intensity (a.u.)
13,AGTGGAGTACTATTTTCCCATTTCATCCAACCATTGCATTCGGAGTCACCTAGTGCAG,9030 fluorescence intensity (a.u.)
14,CTGTTTCTTTGTTGCGCATTGAATCGATCTAGGTTAGTACCGGAGTCACCTAGTGCAG,12700 fluorescence intensity (a.u.)
15,ATACATGTGGTTTCATACAACTTTTACCATAAAATATGATCGGAGTCACCTAGTGCAG,8350 fluorescence intensity (a.u.)
16,TGCAATCCTCTGTTTTAAACTTACATTCTTGTCATAATTCCGGAGTCACCTAGTGCAG,8360 fluorescence intensity (a.u.)
17,AAAGTGTATTTGTATTCTGTTTTTTTCACCCTTTGTATATCGGAGTCACCTAGTGCAG,8590 fluorescence intensity (a.u.)
18,CCTCCCTCCTTTCTCGCGCCCGCGCCTCCTGAAACTGGGACGGAGTCACCTAGTGCAG,8470 fluorescence intensity (a.u.)
19,ATTCTTTTTCTTTTCTTCTTTCTTCCTTATTCTTTTCTCCCGGAGTCACCTAGTGCAG,10100 fluorescence intensity (a.u.)
20,GATTACATTTCAATTCAATTTCAATCCCATTCACTTTTGCCGGAGTCACCTAGTGCAG,8710 fluorescence intensity (a.u.)
21,CACTACCTGCGCGCTCGCTCCACCCCGCGCCCTAATCTCCCGGAGTCACCTAGTGCAG,8720 fluorescence intensity (a.u.)

row,Sequence,binding signal
1,GCTCTCGCTGACGCTGCCGCTCCGCCTGCCTCCGCCCGCGCGGAGTCACCTAGTGCAG,10600 fluorescence intensity (a.u.)
2,GCCTGTGTTACTTACTACTCGACCCTTGCCTTGACGTCAACGGAGTCACCTAGTGCAG,13200 fluorescence intensity (a.u.)
3,TCTCTTCTCTTCTTCCGCGACACGTCTTCGCCGCCGCCGCCGGAGTCACCTAGTGCAG,8440 fluorescence intensity (a.u.)
4,GGTAATTGATCGATCCTTGACTTCTTAATGCATATTATTGCGGAGTCACCTAGTGCAG,9030 fluorescence intensity (a.u.)
5,ATTCCTCCGCCACAACACCACGCTGACCACAGTCCACCGTCGGAGTCACCTAGTGCAG,8360 fluorescence intensity (a.u.)
6,TATTCCTTTCATTGGGTTTGTGCGGGATGGCTGGTTGGTGCGGAGTCACCTAGTGCAG,18100 fluorescence intensity (a.u.)
7,GTTTCAAAATATTTGACACCGTTGACTTTTTAGTACGTGTCGGAGTCACCTAGTGCAG,19100 fluorescence intensity (a.u.)
8,AGGAGCGGGGAGAGTGTCGCGGTGTTGTCAGGGTGAGGGGCGGAGTCACCTAGTGCAG,12100 fluorescence intensity (a.u.)
9,TCCATCTTCTTTGTCTATGTTAGCACCGATTTCAGTCAGCCGGAGTCACCTAGTGCAG,12600 fluorescence intensity (a.u.)
10,CCGCACCCTGGCCCTCTTGGTCTTCAATTCTTGGTTAGCACGGAGTCACCTAGTGCAG,8270 fluorescence intensity (a.u.)
11,ATGCAGTGTGATTTTAGGTGATTACTACTCCATTCTTGCTCGGAGTCACCTAGTGCAG,10200 fluorescence intensity (a.u.)
12,GCCTTTTCTCTGTCTATTTCAGCACCTCATCGATTTTTTTCGGAGTCACCTAGTGCAG,15800 fluorescence intensity (a.u.)
13,GGATTGGTCATTATTTTTTTTTTCTGCTGTTGGGATGATCCGGAGTCACCTAGTGCAG,8530 fluorescence intensity (a.u.)
14,CTCTCTCTCTACTCTTCTCTTCTCTCTCCTTTTGTTGCTTCGGAGTCACCTAGTGCAG,11000 fluorescence intensity (a.u.)
15,ATGTCAACTTTCTCATTTTCTTTTTCTTTCCACAGTGTGACGGAGTCACCTAGTGCAG,10500 fluorescence intensity (a.u.)
16,TTATGGCCTGCTGTGCTTTGCTTGGGATGGGTTTCTTCGGCGGAGTCACCTAGTGCAG,13400 fluorescence intensity (a.u.)
17,GTACATGCCCCATACCCATTATCCTCTTGTTTTTGTCTCCCGGAGTCACCTAGTGCAG,8560 fluorescence intensity (a.u.)
18,GGCGACTGATTTGCTGGCATGCGTAATTTTTGGCCGGTGACGGAGTCACCTAGTGCAG,9720 fluorescence intensity (a.u.)
19,CTACATCTTGGACGACCGCGTCTTCTTTCCTCCATGCATGCGGAGTCACCTAGTGCAG,9960 fluorescence intensity (a.u.)
20,CCACTTCACTTGGGCTCTTGTACATGCCTCCTTTCATCAACGGAGTCACCTAGTGCAG,12100 fluorescence intensity (a.u.)
21,ATTCTAAGTCCCTGTCACATCGGATGTTTGGCACTAATTTCGGAGTCACCTAGTGCAG,8490 fluorescence intensity (a.u.)

row,Sequence,binding signal
1,GTTTGCATTAGCTTCATTTCGGTTGTAATCCCAGAGTTTGCGGAGTCACCTAGTGCAG,8220 fluorescence intensity (a.u.)
2,CCACTTGACTCTCTCCACTCGCCTTCGCTTTCCACTTCTACGGAGTCACCTAGTGCAG,12900 fluorescence intensity (a.u.)
3,AATCAGTCCGACAAATTTCCTGTGGTTTTTCAATCCCTTTCGGAGTCACCTAGTGCAG,10500 fluorescence intensity (a.u.)
4,CCGGAGGAGGAGGGGAGGGTGCGGCCGGCGGCCCTTGCCGCGGAGTCACCTAGTGCAG,9840 fluorescence intensity (a.u.)
5,CATACGGTAATTTTCTGGTTTGTTTTTGCACTATATATTTCGGAGTCACCTAGTGCAG,12100 fluorescence intensity (a.u.)
6,GTCAAACATGTGCTAAAAAGTCAACGGTGTCAAACATTTCCGGAGTCACCTAGTGCAG,17400 fluorescence intensity (a.u.)
7,TTTTGGATTCTTTGGGCTGTTGCAATTTCACTTGTTTTCGCGGAGTCACCTAGTGCAG,9130 fluorescence intensity (a.u.)
8,TAACCGATTTCAGAATATGTTTATGCTCCACTTTTGTTTTCGGAGTCACCTAGTGCAG,8530 fluorescence intensity (a.u.)
9,TTTTTTGCTCCCGCAATTTTTTTCTGTTTTCTTTTTTTTGCGGAGTCACCTAGTGCAG,10100 fluorescence intensity (a.u.)
10,ACTCCACTTAGGCTGCATTCGTTCTAGATACATTGAGTTACGGAGTCACCTAGTGCAG,9970 fluorescence intensity (a.u.)
11,GGGCCCACCTTGAAAGATCACGTGTCACCCGCGCCATCTACGGAGTCACCTAGTGCAG,9400 fluorescence intensity (a.u.)
12,CTTTTCCTGTTATATTTTTCCTTACTGTTACTACGGTATCCGGAGTCACCTAGTGCAG,9930 fluorescence intensity (a.u.)
13,CTGTTCATCTATTTAATTAAGGATGCAATCTACCTGTCCACGGAGTCACCTAGTGCAG,8080 fluorescence intensity (a.u.)
14,TCAGGTTATAAGACTTTCTAGCATTGCCCGCATTCATATACGGAGTCACCTAGTGCAG,8040 fluorescence intensity (a.u.)
15,CGCTTTTTAAACTACTACACGGTGTATTTTTTTGCAAAAACGGAGTCACCTAGTGCAG,8620 fluorescence intensity (a.u.)
16,AGATTATGCCAGCCCAATATCACATCGTAGCCCAATACAACGGAGTCACCTAGTGCAG,8280 fluorescence intensity (a.u.)
17,TGCTCCATGACAAGTACGGCGAGTTTATTTAATTTTCTCACGGAGTCACCTAGTGCAG,8080 fluorescence intensity (a.u.)
18,CGACGCCACCGCCTGTATGTCCACATGCTCCACCGTCGCCCGGAGTCACCTAGTGCAG,10100 fluorescence intensity (a.u.)
19,ATTTCAATCTAGCTGACATCATCACTTCATCTTATTTGACCGGAGTCACCTAGTGCAG,8880 fluorescence intensity (a.u.)
20,AGTATCCCGCATGATATCTGACCACCACGGACATCGTCTTCGGAGTCACCTAGTGCAG,12800 fluorescence intensity (a.u.)
21,AATAGTCGTACGTTGTCGTCAATTCGCCCATGGTTTTGATCGGAGTCACCTAGTGCAG,8460 fluorescence intensity (a.u.)

# An excerpt from further up, for reference:
row,Sequence,binding signal
11,GGGCCCACCTTGAAAGATCACGTGTCACCCGCGCCATCTACGGAGTCACCTAGTGCAG,9400 fluorescence intensity (a.u.)
12,CTTTTCCTGTTATATTTTTCCTTACTGTTACTACGGTATCCGGAGTCACCTAGTGCAG,9930 fluorescence intensity (a.u.)
13,CTGTTCATCTATTTAATTAAGGATGCAATCTACCTGTCCACGGAGTCACCTAGTGCAG,8080 fluorescence intensity (a.u.)

# Following part

row,Sequence,binding signal
1,ATCTCGAGTTCCTTTTTTTTTCTCTCCTGAAGGAGTAGAACGGAGTCACCTAGTGCAG,8060 fluorescence intensity (a.u.)
2,TATACTTCCTGCATCCCTAAATGTTTGACGCTGTTGACTTCGGAGTCACCTAGTGCAG,10900 fluorescence intensity (a.u.)
3,AAATGCTTCCATGCCTTCGTTTGATCGCTGCAATGACCCTCGGAGTCACCTAGTGCAG,8520 fluorescence intensity (a.u.)
4,TCTTTCCTCATTTATTTACTTGTTACATCAATTTTCATCGCGGAGTCACCTAGTGCAG,10100 fluorescence intensity (a.u.)
5,GGCGTGGTGCTATGTTTGGTGATCATTTTGCCAGTCTGTCCGGAGTCACCTAGTGCAG,9180 fluorescence intensity (a.u.)
6,CCTCCGTCGACCCACCCGTGCCGTTCTCTTCGCCGTCATGCGGAGTCACCTAGTGCAG,10000 fluorescence intensity (a.u.)
7,CCCTCATCCAGCCATTGTTACTGTGCCCGCGCTCCCGCGCCGGAGTCACCTAGTGCAG,10200 fluorescence intensity (a.u.)
8,GAGCCCTACGTCGCCGCCCACAACGTGATACTCTCCCACGCGGAGTCACCTAGTGCAG,9940 fluorescence intensity (a.u.)
9,CATTTGCGCATTTCCTCTTCTATTACCCGCATTGTTCAACCGGAGTCACCTAGTGCAG,13100 fluorescence intensity (a.u.)
10,CGTATATCCGATGTGACACGCCAAAACTTTACACCCATGTCGGAGTCACCTAGTGCAG,8030 fluorescence intensity (a.u.)
11,TCCGCCAGAAAACTACGTGACGAATTTATTAATCCTATTTCGGAGTCACCTAGTGCAG,8570 fluorescence intensity (a.u.)
12,TTTGGGATAAATCATGAGGGGTTAAAAGTTGTTATATTTTCGGAGTCACCTAGTGCAG,10100 fluorescence intensity (a.u.)
13,TAGTTAGTCATAAGGTGGTTCAGTTTGGGAGGGCTGATACCGGAGTCACCTAGTGCAG,8040 fluorescence intensity (a.u.)
14,CTATAACATCGCATGACACTATTTGCTTTATTTATTTATTCGGAGTCACCTAGTGCAG,9020 fluorescence intensity (a.u.)
15,CTGAGGTCCCTTAACTTATCTACGAATCCGATTTTCGTCCCGGAGTCACCTAGTGCAG,9300 fluorescence intensity (a.u.)
16,GTTATTCAAAACTATAGTTATCTTCCGCCTATTTTTTTATCGGAGTCACCTAGTGCAG,10600 fluorescence intensity (a.u.)
17,TTCCGTTCTTGAATATTGATCTTTCGTTTTTCTTTCCTAGCGGAGTCACCTAGTGCAG,8770 fluorescence intensity (a.u.)
18,GGACCTGTAAATTGCACATTTGTACATCCAACTGAGCACACGGAGTCACCTAGTGCAG,8270 fluorescence intensity (a.u.)
19,CTCTATGCAGAATGTTTGTGTCCTTTCACCCATCTCTTTGCGGAGTCACCTAGTGCAG,8740 fluorescence intensity (a.u.)
20,GTCCAATCCCTTACCGTTGATTGGCCACGTGGCTAAAACTCGGAGTCACCTAGTGCAG,10700 fluorescence intensity (a.u.)
21,CTTACCGTGCAAATTGAATTTTGTTACTGTTTGGTACTTCCGGAGTCACCTAGTGCAG,9000 fluorescence intensity (a.u.)
